Data: patent US8741944B2, “Anti-infective agents against intracellular pathogens” (priority 2007, dated 2014)
At least one structure is not confirmed: it was looked up by name or label, or the drawing left a doubt.

By UniProt entry, the sequences of proteins in these tests, tags left out. Where a name states a change or a piece, a line headed by the entry shows the natural chain unless it says otherwise.
UniProt P35354, whole entry, looked up: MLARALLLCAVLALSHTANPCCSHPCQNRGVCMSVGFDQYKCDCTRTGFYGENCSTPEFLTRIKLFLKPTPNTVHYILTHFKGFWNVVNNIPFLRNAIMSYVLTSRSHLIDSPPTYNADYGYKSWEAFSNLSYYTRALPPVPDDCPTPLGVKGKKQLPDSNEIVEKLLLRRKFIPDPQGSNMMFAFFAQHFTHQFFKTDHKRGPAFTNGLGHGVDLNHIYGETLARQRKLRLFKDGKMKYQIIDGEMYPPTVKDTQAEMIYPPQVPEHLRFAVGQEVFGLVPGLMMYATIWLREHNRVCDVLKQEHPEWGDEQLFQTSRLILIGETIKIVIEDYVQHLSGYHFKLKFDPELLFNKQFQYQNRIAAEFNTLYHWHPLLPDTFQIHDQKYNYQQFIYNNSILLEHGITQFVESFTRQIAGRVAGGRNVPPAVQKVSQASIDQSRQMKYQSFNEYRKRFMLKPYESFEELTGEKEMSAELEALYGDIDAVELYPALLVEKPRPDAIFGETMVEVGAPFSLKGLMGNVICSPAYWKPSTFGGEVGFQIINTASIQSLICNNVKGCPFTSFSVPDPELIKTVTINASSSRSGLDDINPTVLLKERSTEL
UniProt O15530: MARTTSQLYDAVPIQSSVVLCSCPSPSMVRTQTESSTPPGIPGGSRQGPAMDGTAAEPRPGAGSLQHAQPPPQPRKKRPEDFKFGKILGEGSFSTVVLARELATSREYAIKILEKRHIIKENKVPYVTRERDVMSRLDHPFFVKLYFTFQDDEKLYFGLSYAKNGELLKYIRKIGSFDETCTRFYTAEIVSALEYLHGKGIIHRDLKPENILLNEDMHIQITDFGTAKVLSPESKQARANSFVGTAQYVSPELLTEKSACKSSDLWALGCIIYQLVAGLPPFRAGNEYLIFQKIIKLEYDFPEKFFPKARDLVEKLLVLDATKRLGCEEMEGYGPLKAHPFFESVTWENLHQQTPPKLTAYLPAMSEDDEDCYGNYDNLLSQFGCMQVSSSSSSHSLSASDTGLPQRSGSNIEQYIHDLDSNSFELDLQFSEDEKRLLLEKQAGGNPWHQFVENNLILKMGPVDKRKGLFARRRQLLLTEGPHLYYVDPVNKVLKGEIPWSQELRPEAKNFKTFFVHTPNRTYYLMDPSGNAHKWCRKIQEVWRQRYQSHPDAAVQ

Key:
PC-3 cells = assay: Apoptosis analysis in PC-3 cells (DNA fragmentation ELISA, PARP cleavage); type: cell-based, human; settings: 1% FBS-containing medium
Description: Apoptosis analysis Two methods were used to assess drug-induced apoptotic cell death: detection of DNA fragmentation by the Cell Death Detection ELISA kit (Roche Diagnostics. Mannheim, Germany) and Western blot analysis of poly-(ADP-ribose)polymerase (PARP) cleavage. […] In brief, 4×10^5 PC-3 cells were cultured in a T-25 flask for 24 h before treatment. Cells were treated with the DMSO vehicle or the test agent at the indicated concentrations for 6-24 h, collected, and cell lysates equivalent to 2×10^3 PC-3 cells were used in the ELISA. For the PARP cleavage assay, drug-treated cells were collected 4-8 h post-treatment, washed with ice-cold PBS, and resuspended in lysis buffer containing 20 mM Tris-HCl, pH 8, 137 mM NaCl, 1 mM CaCl2, 10% glycerol, 1% Nonidet P-40, 0.5% deoxycholate, 0.1% SDS, 100 μM 4-(2-aminoethyl)benzenesulfonyl fluoride, leupeptin at 10 μg/mL, and aprotinin at 10 μg/mL. Soluble cell lysates were collected after centrifugation at 10,000 g for 5 min. Equivalent amounts of proteins (60-100 μg) from each lysate were resolved in 8% SDS-polyacrylamide gels. Bands were transferred to nitrocellulose membranes, and analyzed by immunoblotting with anti-PARP antibody.

phospho-Akt = assay: Western blot analysis of Akt and phospho-Akt in PC-3 cells; type: cell-based, human; settings: even at 1 μM
Description: Immunoblotting. The general procedure for the Western blot analysis of Akt and phospho-Akt is described as follows. Cells were washed in PBS, resuspended in SDS sample buffer sonicated by an ultrasonic sonicator for 5 see, and boiled for 5 min. After brief centrifugation, equivalent protein concentrations from the soluble fractions were resolved in 10% SDS-polyacrylamide gels on a Minigel apparatus, and transferred to a nitrocellulose membrane using a semi-dry transfer cell. The transblotted membrane was washed three times with TBS containing 0.05% Tween 20 (TBST). After blocking with TBST containing 5% nonfat milk for 60 min., the membrane was incubated with the primary antibody at 1:1,000 dilution in TBST-5% low fat milk at 4° C. for 12 h, and was then washed three times with TBST. The membrane was probed with goat anti-rabbit IgG-HRP conjugates (1:1,000) for 1 h at room temperature, and was washed with TBST three times. The immunoblots were visualized by enhanced chemiluminescence.

COX-2 = COX-2 (Homo sapiens (Human), UniProt P35354); assay: COX-2 inhibitory activity; type: biochemical; settings: concentrations up to 50 μM
Akt = assay: Direct inhibition of immunoprecipitated Akt kinase activity; type: biochemical, human
recombinant PDK-1 = recombinant PDK-1 (Homo sapiens (Human), UniProt O15530); assay: PDK-1 kinase activity (PDK-1 kinase assay kit, cell-free); type: biochemical
Description: PDK-1 kinase activity This in vitro assay was performed using a PDK-1 kinase assay kit (Upstate, Lake Placid, N.Y.) according to the vendor's instructions. This cell-free assay is based on the ability of recombinant PDK-1, in the presence of DMSO vehicle or the test agent, to activate its downstream kinase serum- and glucocorticoid-regulated kinase (SGK.) which, in turn, phosphorylates the Akt/SGK-specific peptide substrate RPRAATF with [γ-^32]-ATP. […] The reported values represent the means of two independent determinations.

**Q.** For `NCC(=O)Nc1ccc(-n2nc(C(F)(F)F)cc2-c2ccc3c(ccc4ccccc43)c2)cc1` [Compound 70, 2-Amino-N-{4-[5-(2-phenanthrenyl)-3-(trifluoromethyl)-1H-pyrazol-1-yl]-phenyl}-acetamide], which “apoptotic death in PC-3 cells (DNA fragmentation and PARP cleavage)” value (PC-3 cells) is on record?
**A.** induced apoptotic death

**Q.** What about the phospho-Akt level (phospho-Akt) of the same compound?
**A.** substantial decrease

**Q.** And the COX-2 inhibitory activity (COX-2)?
**A.** nor was any measurable COX-2 inhibitory activity detected

**Q.** And the “direct inhibitory effect on immunoprecipitated Akt kinase activity” value (Akt)?
**A.** no appreciable direct inhibition

**Q.** And the “increase in PDK-1 inhibition potency over compound 59” value (recombinant PDK-1)?
**A.** two
